Holding throughout (experiment): two-hybrid; GAL4 yeast two-hybrid; prey in Y187 and bait in Y2HGold, mated; selection on SD-L-T-H with an optimized content of 3-AT and on SD-L-T-H-A
The target in experiment [1] is T1, OsNF-YB1 (rice (Oryza sativa subsp. Japonica, cv Kitaake)) (UniProt Q6Z348).
T1 sequence: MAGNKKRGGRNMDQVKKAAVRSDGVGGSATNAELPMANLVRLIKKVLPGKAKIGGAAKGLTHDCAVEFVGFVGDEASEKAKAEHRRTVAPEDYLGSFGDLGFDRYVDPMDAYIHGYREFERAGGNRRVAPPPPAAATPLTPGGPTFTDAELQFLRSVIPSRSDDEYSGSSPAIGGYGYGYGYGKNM

The target in experiment [2] is OsNF-YC10 (rice (Oryza sativa subsp. Japonica, cv Kitaake)).
Experiment [3] has as its target OsNF-YC11 (rice (Oryza sativa subsp. Japonica, cv Kitaake)).
The target in experiment [4] is OsNF-YC8 (rice (Oryza sativa subsp. Japonica, cv Kitaake)).
The target of experiment [5] is OsNF-YC12 (rice (Oryza sativa subsp. Japonica, cv Kitaake)).
The target in experiment [6] is OsNF-YC9 (rice (Oryza sativa subsp. Japonica, cv Kitaake)).

These are yes or no findings as the source states them, for the method shown. For some assays here: Binding calls can cover weak binding; strength is not graded here.

On to OsERF72, for which, in experiment [1], the binding result is reported as “no binding”.

Turning to OsNF-YA8, in experiment [1], the binding result is “no binding”.

Take OsERF74: the binding result in experiment [1] is given as “no binding”.

B1: OsNF-YB1 (protein, UniProt Q6Z348 1-186)
chain: T1 sequence
As for B1, the binding entry in experiment [2], in experiment [3], in experiment [4], in experiment [5] and in experiment [6] was “binds” each time.
